{"source": "paper PMC12024213", "about": "“Mechanism Insight of Cell Death Signaling by Thymol Derivatives on Trypanosomatidae Protozoan Parasites” (Antibiotics, 2025)", "test_system": "T. cruzi epimastigotes", "experiment": "alamarBlue assay on T. cruzi epimastigotes", "format": "cell-based, Trypanosoma cruzi", "conditions": "against T. cruzi epimastigotes", "procedure": "In a 96-well plate, a serial dilution of the tested derivatives was performed in liver infusion tryptose medium supplemented with 10% heat inactivated fetal bovine serum. Later, 100 µL of 5 × 10^5 cells/mL of epimastigotes was added to each well. Afterwards, 20 µL of alamarBlue® was added to each well, and the plate was maintained at 26 °C for 72 h.\nCytotoxicity effect of the tested derivatives was conducted using macrophages of the murine cell line J774.A1 (American Type Culture Collection #TIB-67, city, country), as previously described. The cells were maintained in DMEM at 37 °C in a 5% CO2 humidified incubator. All the plates containing alamarBlue® were analyzed using a plate reader EnSpire Multimode Plate Reader® at excitation and emission wavelengths of 570 and 585 nm, respectively (PerkinElmer, ThermoFisher Scientific, Madrid, Spain). The IC50 (concentrations able to inhibit 50% of parasites), IC90 (concentrations able to inhibit 90% of parasites), and CC50 (concentration able to inhibit 50% of murine macrophages) values were determined for each compound by nonlinear regression using GraphPad software.", "data": [{"smiles": "Cc1ccc(C(C)C)c(OC(=O)c2ccccn2)c1", "note": "[Derivative 10, thymyl picolinate]", "values": [{"measurement": "increase in potency compared to the parent compound (1)", "result": 5, "unit": "fold"}]}, {"smiles": "COc1ccc(C(=O)Oc2cc(C)ccc2C(C)C)cc1", "note": "[Derivative 9, thymyl anysoate]", "values": [{"measurement": "increase in potency compared to the parent compound (1)", "result": 7, "unit": "fold"}]}]}
